Cell number change and AC50 data for 40 compounds are collected here from PubChem BioAssay AID2685 (National Center for Advancing Translational Sciences (NCATS), 2010).

The list shows a part of the results. These are further read-outs of the screen, such as a control signal, another cell line or another target. No call is given for them. Compounds called inactive in the main read-out are mostly missing here. Words in brackets tell the shape of the fitted curve; partial curves, single points and poor fits give uncertain potencies.

A word on the AC50: it is the midpoint of the concentration-response curve, whichever way the signal moves.

This assay is described as follows: qHTS Assay for Lipid Storage Modulators in Drosophila S3 Cells.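 On Cell number change: cells counted by Cell Tracker Red CMTPX staining in the red channel.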 Particulars: BODIPY lipid droplet fluorescence, 18-24 h; for cell number change: measured here: cell count max response, cells fed with added oleic acid. In short, it runs like this:
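Drosophila S3 cells loaded with oleic acid (400 uM, as added) and compounds at several concentrations; lipid droplets imaged by 488-nm laser-scanning cytometry, 500–530 nm intensity and object ratio to cell channel. Percent activity normalized to 20 uM Triacsin C.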
In general terms: qHTS replaces the single test concentration by a dilution series.

Where [1] appears, read: measured here: lipid fluorescence (Fed channel) AC50, cells fed with added oleic acid.
Setting [2] is: measured here: cell number channel AC50, cells fed with added oleic acid.

Consider `CCOC(=O)CN1C(=O)NC2(CCCc3ccccc32)C1=O` (configuration not stated), for which the cell number change was 9.21%. Further, under setting [1], the AC50 was 0.631 µM [falling, partial curve, poor fit].
In the case of `COc1ccc(NC(=O)CCCN2C(=O)CN(C)C2=O)cc1Cl`, the cell number change was determined as 5.58%. Besides, the concentration at half-maximal activity (AC50) under setting [2] is 0.164 µM [falling, full curve, poor fit]. Moreover, the AC50 under setting [1] is 0.164 µM [falling, full curve, poor fit].
In the case of `Cc1ccc(S(=O)(=O)NCc2cn3ccccc3n2)c(C)c1`, the cell number change was -17.6%.
In the case of `COCCN(CCOC)c1nc(-c2ccc(C)cc2)nc2ccccc12`, the cell number change amounted to 36.5%. Also, the AC50 under setting [2] was 29.1 µM [rising, single point]. Moreover, under setting [1], the AC50 was 0.82 µM [falling, single point].
For the compound `CC(C)C(c1nnnn1C1CCCC1)N1CCC(C(N)=O)CC1` (configuration not stated), the cell number change was found to be 3%. The AC50 under setting [1] was 0.82 µM [rising, single point].
As to `O=S(=O)(c1ccc(F)cc1)N1CCN(CC(O)COCc2cccs2)CC1` (configuration not stated), the cell number change came out at 6.07%. Under setting [1], the AC50 was 29.1 µM [rising, single point].
Turning to `CN(C)C(=O)c1cc(C(=O)c2ccc(C(F)(F)F)cc2F)c[nH]1`, the AC50 under setting [1] is 0.58 µM [falling, single point].
With `O=C(c1ccc(Cl)c(S(=O)(=O)N2CCCCC2)c1)N1CCCCC1`, the cell number change is -4.95%.
Take `CCC1CCCCN1CCCNC(=O)c1ccc2c(=O)n(Cc3ccc(OC)cc3)c(=O)[nH]c2c1` (configuration not stated): the cell number change was -8.31%. In addition, the AC50 under setting [1] was 0.00411 µM [rising, full curve, poor fit].
As to `Oc1ccc(-c2sc(Nc3ccccc3)n[n+]2-c2ccc(F)cc2)cc1`, the cell number change was found to be 2.4%.
Regarding `Cc1ccccc1-n1cnnc1SCC(=O)Nc1cccnc1Cl`, the cell number change is -2.04%. The half-maximal activity concentration (AC50) under setting [1] is 3.66 µM [falling, single point].
Take `CCOc1ccccc1NC(=O)CCNS(=O)(=O)c1cccc2nonc12`: the cell number change was -0.417%. Further, the half-maximal activity concentration (AC50) under setting [1] is 0.13 µM [rising, single point].
With `COC(=O)Cn1c(=O)c2c(nc(Br)n2CC(=O)OC)n(C)c1=O`, the cell number change stood at 22.5%. Further, the AC50 under setting [1] was 0.82 µM [falling, single point].
Turning to `Cc1cccc(NC(=O)Cn2cnc3ccccc3c2=O)c1C`, the cell number change is -13.2%. The AC50 under setting [1] is 18.4 µM [falling, single point].
In the case of `Cc1ccc(-c2nnn(CC(=O)N(c3ccccc3)C(C(=O)NC3CCCC3)c3ccncc3)n2)o1` (configuration not stated), the cell number change is 28.2%.
For the compound `CC(NC(=S)NC1CCCCC1)C(c1cccs1)N1CCOCC1` (configuration not stated), the cell number change was -6.46%. Under setting [1], the concentration at half-maximal activity (AC50) is 1.84 µM [falling, partial curve, poor fit].
For `CCOCC(=O)Nc1ccccc1C(=O)OCC`, the cell number change is 66.7%. Further, the AC50 under setting [1] is 18.4 µM [rising, partial curve].
Turning to `CCCCn1c(N)c(N(CCC(C)C)C(=O)C2CCCC2)c(=O)[nH]c1=O`, the cell number change worked out at 21.3%. The AC50 under setting [1] was 0.259 µM [rising, partial curve, poor fit].
`COc1ccccc1NC(=O)NC1(C(=O)N2CCN(C)CC2)CCCCC1`: the cell number change turned out to be 8.4%. In addition, under setting [1], the concentration at half-maximal activity (AC50) was 29.1 µM [falling, single point].
Consider `O=C(COC(=O)c1ccc(O)cc1O)NC1CCCCCC1`, for which the cell number change was -18.5%. Under setting [1], the concentration at half-maximal activity (AC50) is 29.1 µM [falling, single point].
`c1ccc(-c2nn3c(C4CCCCC4)nnc3s2)cc1`: the cell number change was 9.41%. Further, under setting [1], the concentration at half-maximal activity (AC50) was 2.06 µM [rising, single point].
`C=CCn1c(=O)/c(=C/c2ccc(Cl)cc2)s/c1=C(/C#N)c1nnc2n1CCCCC2`: the cell number change is -4.87%. Further, under setting [1], the half-maximal activity concentration (AC50) is 0.651 µM [rising, partial curve, poor fit].
Take `O=C(c1ccc(F)cc1)N1CCN=C1c1ccccc1`: the cell number change worked out at 1%. Also, the AC50 under setting [1] was 3.66 µM [rising, single point].
Consider `COc1cccc(C(C(=O)NC2CCCC2)N(C(=O)c2csnn2)C2CC2)c1` (configuration not stated), for which the cell number change was -7.62%.
For the compound `CC1CN(Cc2ccccc2)c2nc3c(c(=O)[nH]c(=O)n3C)n2C1` (configuration not stated), the cell number change was 41.6%. Besides, under setting [2], the AC50 is 6.51 µM [rising, partial curve]. Under setting [1], the half-maximal activity concentration (AC50) is 7.31 µM [rising, partial curve].
`O=C(Cc1ccccc1)Nc1c(C(=O)N2CCOCC2)cnn1-c1ccccc1`: the cell number change was -0.143%. The AC50 under setting [1] was 2.59 µM [falling, full curve, poor fit].
For the compound `O=C(NNC(=O)c1ccccc1-c1ccccc1C(=O)O)c1cccc([N+](=O)[O-])c1`, the cell number change was -4.91%.
Consider `Cc1ccc(S(=O)(=O)NCCC(=O)Oc2ccc3ccc(=O)oc3c2)cc1`, for which, under setting [1], the half-maximal activity concentration (AC50) was 0.92 µM [falling, full curve, poor fit].
Same read-out and setting: the result for `C=C(C)Cn1c(CCNC(=O)c2ccco2)nc2ccccc21` reads 0.0082 µM [falling, full curve, poor fit].
As for `COc1ccc(NC(=O)NC2(C(=O)N3CCCC(C)C3)CCCCC2)cc1` (configuration not stated), the cell number change stood at 30.8%.
With `CN1C(=O)CSC1=S`, the cell number change amounted to 14.4%. Also, under setting [1], the AC50 is 0.58 µM [falling, single point].
On to `Cc1ccc(S(=O)(=O)NC(=O)N2CCCC(C)(C)C2)cc1`, for which the cell number change came to 1.98%.
On to `CC(=O)Nc1ccc(/C=C(\C#N)C(=O)NCc2ccccc2)cc1`, for which the cell number change is -44%. Besides, the AC50 under setting [2] is 23.1 µM [falling, single point]. Under setting [1], the AC50 is 2.31 µM [falling, partial curve, poor fit].
On to `Cc1ccccc1C1C(C#N)=C2N=C(N)c3ccccc3N2C2=C1C(=O)CCC2` (configuration not stated), for which the AC50 is, setting by setting: under setting [2], 4.11 µM [rising, partial curve, poor fit]; under setting [1], 6.51 µM [rising, partial curve, poor fit].
Take `Cc1nn(CCCC(=O)NCCCN2CCN(C)CC2)c(=O)c2c1sc1ccccc12`: the cell number change was determined as 4.45%.
For the compound `CCOC(=O)c1[nH]c2cc3c(cc2c1NC(=O)CN1CC(C)CC(C)C1)OCO3` (configuration not stated), the cell number change was -0.511%. Besides, the concentration at half-maximal activity (AC50) under setting [1] was 2.59 µM [rising, partial curve].
In the case of `CC(C)N(C(=O)COC(=O)c1ccc(Cl)c(S(N)(=O)=O)c1)C(C)C`, the cell number change was -25.7%. The concentration at half-maximal activity (AC50) under setting [1] is 29.1 µM [falling, single point].
With `COc1ccccc1-c1cc(C(=O)N/N=C\c2cn(C)nc2C)c2ccccc2n1`, the cell number change turned out to be 15.2%. Also, the AC50 under setting [1] is 1.03 µM [rising, partial curve].
`CN(CCO)c1ccc(-c2n[nH]c(=O)c3ccccc23)cc1[N+](=O)[O-]`: the cell number change came to 15.6%. For the same compound, the AC50 under setting [1] was 0.58 µM [falling, single point].
For `O=C(CCc1ccc(S(=O)(=O)N2CCOCC2)cc1)N/N=C/c1ccc(F)cc1F`, the cell number change was 79.2%. Further, the AC50 under setting [2] was 16.4 µM [rising, single point].
